Source: patent US8124964B2, “Field-effect transistor” (Nippon Kayaku Kabushiki Kaisha, priority 2006, dated 2012)

Test: Semiconductor characteristics of coated field-effect transistor (semiconductor parameter analyzer, under the atmosphere)
[1] = Example 1 process: 0.4% chloroform ink, spin coating, heat treatment under argon 80° C. 30 minutes before gold electrode deposition
[2] = Example 5 process: 0.4% chloroform ink, spin coating, heat treatment under nitrogen 80° C. 30 minutes after gold electrode deposition
[3] = Example 7: 1% toluene ink, dip-coating on comb-type electrode, 80° C. 5 minutes, bottom-contact type
[4] = Example 8: 1% toluene ink, inkjet recording method, 80° C. 5 minutes, top-contact type
[5] = Example 9: 1% toluene ink, inkjet recording method on comb type electrode, 80° C. 5 minutes, bottom-contact type
[6] = Example 10: 1% tetrahydrofuran ink, spin coating, 80° C. 10 minutes, top-contact type
[7] = Example 11: 0.5% cyclopentanone ink, spin coating, 80° C. 10 minutes, top-contact type

SMILES | ON/OFF ratio [1] | carrier mobility [1] | threshold [1] | ON/OFF ratio [2] | carrier mobility [2] | threshold [2] | further results
c1ccc(-c2ccc3c(c2)sc2c4ccc(-c5ccccc5)cc4sc32)cc1 [Comparative Example 1, reference compound] |  |  |  |  |  |  | semiconductor characteristics (current flow) (Comparative Example 2: chloroform filtrate (0.02% by mass) as ink, same operation as in Example 1): no current flow
CCCCCCCCc1ccc2c(c1)sc1c3ccc(CCCCCCCC)cc3sc21 [Compound No. 16, 2,7-Dioctyl[1]benzothieno[3,2-b][1]benzothiophene] | 1×10^7 | 0.66 cm^2/Vs | −47 V | 1×10^7 | 0.9 cm^2/Vs | −47 V | ON/OFF ratio [3]: 1×10^7; carrier mobility [3]: 0.59 cm^2/Vs; threshold [3]: −52 V; ON/OFF ratio [4]: 1×10^4; carrier mobility [4]: 0.086 cm^2/Vs; threshold [4]: −50 V; ON/OFF ratio [5]: 1×10^6; carrier mobility [5]: 0.085 cm^2/Vs; threshold [5]: −56 V; ON/OFF ratio [6]: 1×10^8; carrier mobility [6]: 2.5 cm^2/Vs; threshold [6]: −58 V; ON/OFF ratio [7]: 1×10^8; carrier mobility [7]: 4.5 cm^2/Vs; threshold [7]: −64 V
CCCCCCCCCCCCc1ccc2c(c1)sc1c3ccc(CCCCCCCCCCCC)cc3sc21 [Compound No. 20, 2,7-Didodecyl[1]benzothieno[3,2-b][1]benzothiophene] | 1×10^7 | 0.61 cm^2/Vs | −25 V | 1×10^7 | 1.2 cm^2/Vs | −25 V | 
CCCCCCCCCCCCc1ccc2c(c1)[se]c1c3ccc(CCCCCCCCCCCC)cc3[se]c21 [Compound No. 51, 2,7-Didodecyl-[1]benzoselenopheno[2,3-b]benzoselenophene] | 1×10^4 | 0.012 cm^2/Vs | −30 V |  |  |  | 
CCCCCCC#Cc1ccc2c(c1)sc1c3ccc(C#CCCCCCC)cc3sc21 [Compound No. 88, 2,7-Di(1-octynyl)[1]benzothieno[3,2-b][1]benzothiophene] | 1×10^2 | 4×10^−5 cm^2/Vs | −35 V |  |  |  | 
